Data as given in PubChem BioAssay AID1259308 (NCATS, 2017).
Test: 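Knock-downs that increase output of a recombinant reporter protein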 (primary screen). Cells: human HEK293 embryonic kidney cells stably expressing firefly luciferase (HEK-CMV-Luc2-Hygro). Reagents: single siRNA against human genes, 0.8 pmol siRNA per well. Time to read-out: 72 h. Measured: 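Reporter luminescence and viable-cell signal on separate replicate plates, given as percent of non-targeting control and median/MAD z-scores, plus per-cell luciferase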. Scale: total luciferase, z-score and total luciferase, % of control: higher = more reporter protein produced. Hit rule: 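An siRNA counts as active if its total luciferase robust z-score exceeds 3; genes with two or more such siRNAs out of three were retested with fresh siRNAs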. Calls: active = raised luciferase; inactive = no rise.
Here is a random part of about 59,000 reagents. About 1,510 of them (2.6%) were called active. 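Calls use total luciferase alone and ignore viability, so some active siRNAs may act by altering cell number.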 Unmarked entries are inactive. Reagents against one gene are numbered here. Further read-outs or replicates are left out here.

TMPRSS11D #1: total luciferase, z-score = 0.363; total luciferase, % of control = 89.1
TMPRSS11D #2: total luciferase, z-score = 0.647; total luciferase, % of control = 94.8
TMPRSS11D #3: total luciferase, z-score = -0.51; total luciferase, % of control = 71.7
TRIT1 #1: total luciferase, z-score = -0.478; total luciferase, % of control = 72.4
TRIT1 #2: total luciferase, z-score = 0.111; total luciferase, % of control = 84.1
TRIT1 #3: total luciferase, z-score = 0.212; total luciferase, % of control = 86.1
KRTAP8-1 #1: total luciferase, z-score = 1.63; total luciferase, % of control = 114
KRTAP8-1 #2: total luciferase, z-score = -0.419; total luciferase, % of control = 73.6
KRTAP8-1 #3: total luciferase, z-score = -1.59; total luciferase, % of control = 50.2
ALB #1: total luciferase, z-score = 0.209; total luciferase, % of control = 86
ALB #2: total luciferase, z-score = -0.775; total luciferase, % of control = 66.5
ALB #3: total luciferase, z-score = -2.3; total luciferase, % of control = 36.2
INTS7 #1: total luciferase, z-score = 0.318; total luciferase, % of control = 88.2
INTS7 #2: total luciferase, z-score = 4.98 (active); total luciferase, % of control = 181
INTS7 #3: total luciferase, z-score = 1.42; total luciferase, % of control = 110
OR4N5 #1: total luciferase, z-score = 1.3; total luciferase, % of control = 108
OR4N5 #2: total luciferase, z-score = 0.573; total luciferase, % of control = 93.3
OR4N5 #3: total luciferase, z-score = -0.232; total luciferase, % of control = 77.3
EPCIP #1: total luciferase, z-score = -0.0357; total luciferase, % of control = 81.2
EPCIP #2: total luciferase, z-score = 0.775; total luciferase, % of control = 97.3
EPCIP #3: total luciferase, z-score = 0.391; total luciferase, % of control = 89.7
